The values below come from publication PMC4966956, “Analysis of the Bile Salt Export Pump (ABCB11) Interactome Employing Complementary Approaches” (PLoS ONE, 2016).

Sequences of proteins named here, by UniProt entry; tags and fusion partners are left off. A change or cut given only in a name is not applied to a line headed by its entry. Residues count along the entry.
UniProt P35241, residues 1-318: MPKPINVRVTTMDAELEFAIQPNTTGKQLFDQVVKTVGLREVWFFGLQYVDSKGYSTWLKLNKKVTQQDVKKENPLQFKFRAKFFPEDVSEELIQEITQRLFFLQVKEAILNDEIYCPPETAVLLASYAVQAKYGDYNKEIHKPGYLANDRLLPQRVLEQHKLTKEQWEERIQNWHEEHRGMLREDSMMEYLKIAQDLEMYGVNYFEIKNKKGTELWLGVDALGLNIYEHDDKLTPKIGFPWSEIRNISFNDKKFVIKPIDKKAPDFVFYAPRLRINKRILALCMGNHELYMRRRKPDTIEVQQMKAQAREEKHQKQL
UniProt O95342: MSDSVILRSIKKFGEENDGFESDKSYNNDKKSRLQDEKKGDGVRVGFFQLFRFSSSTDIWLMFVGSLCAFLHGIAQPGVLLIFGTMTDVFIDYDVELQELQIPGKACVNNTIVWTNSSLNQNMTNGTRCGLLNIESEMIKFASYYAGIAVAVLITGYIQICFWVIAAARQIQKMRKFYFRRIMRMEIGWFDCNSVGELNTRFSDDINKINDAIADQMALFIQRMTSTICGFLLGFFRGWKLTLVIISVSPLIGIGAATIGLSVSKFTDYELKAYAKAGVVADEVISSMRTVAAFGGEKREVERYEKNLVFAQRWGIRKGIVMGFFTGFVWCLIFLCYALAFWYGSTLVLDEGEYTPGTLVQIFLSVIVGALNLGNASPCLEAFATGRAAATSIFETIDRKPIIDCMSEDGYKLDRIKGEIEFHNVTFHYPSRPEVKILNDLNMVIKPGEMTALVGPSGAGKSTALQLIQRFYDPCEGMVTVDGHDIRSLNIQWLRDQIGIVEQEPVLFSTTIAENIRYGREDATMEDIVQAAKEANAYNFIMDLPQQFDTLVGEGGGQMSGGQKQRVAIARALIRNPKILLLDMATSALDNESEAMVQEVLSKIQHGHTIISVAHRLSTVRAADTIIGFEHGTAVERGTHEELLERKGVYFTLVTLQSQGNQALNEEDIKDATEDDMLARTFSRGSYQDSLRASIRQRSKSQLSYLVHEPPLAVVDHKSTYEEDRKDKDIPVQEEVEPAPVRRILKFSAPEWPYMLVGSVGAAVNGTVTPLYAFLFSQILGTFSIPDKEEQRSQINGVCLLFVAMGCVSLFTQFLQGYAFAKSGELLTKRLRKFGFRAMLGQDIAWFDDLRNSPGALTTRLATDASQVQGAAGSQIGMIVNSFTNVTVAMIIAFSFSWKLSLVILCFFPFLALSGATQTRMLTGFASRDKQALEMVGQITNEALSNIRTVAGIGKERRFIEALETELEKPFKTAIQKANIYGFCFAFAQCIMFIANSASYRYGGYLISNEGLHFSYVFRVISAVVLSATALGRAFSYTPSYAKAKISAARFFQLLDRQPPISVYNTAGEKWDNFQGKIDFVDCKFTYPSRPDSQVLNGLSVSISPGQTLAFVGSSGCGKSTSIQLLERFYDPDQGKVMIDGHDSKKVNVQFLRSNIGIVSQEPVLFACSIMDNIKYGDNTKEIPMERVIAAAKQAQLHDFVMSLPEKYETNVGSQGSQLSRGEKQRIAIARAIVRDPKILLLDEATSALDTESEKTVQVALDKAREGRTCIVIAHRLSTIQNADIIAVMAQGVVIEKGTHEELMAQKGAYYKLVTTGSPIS

Results are given in words; binding and its absence hold for the method and conditions named. Binding can be weak; no strength is given.

The test has as its target radixin_(1-318), Strep-tagged, purified (human) (UniProt P35241). Kind of test: pull-down; Strep-tagged partner immobilised on Strep-Tactin resin, detergent-solubilised purified BSEP added for 30 min at 4°C; 50 mM sodium phosphate pH 7, 150 mM NaCl, 20% glycerol, 0.022% DDM; immunoblot against BSEP and Strep-tag II; both purified.

Turning to tag-less BSEP (from UniProt O95342), the binding result is given as “binds”.
